This passage reports IC50 results from article PMC5048338, “Discovery of 4,6-disubstituted pyrimidines as potent inhibitors of the heat shock factor 1 (HSF1) stress pathway and CDK9” (Medchemcomm, 2016).

The test concerns HSF1-mediated HSP72 induction. Briefly: Cell-based ELISA (Cellisa) for HSP72 expression. The note with it: Homo sapiens, U2OS, read-out: HSF1 IC50 (cell-ELISA, HSP72 induction inhibition). (An ELISA detects its analyte on a solid surface through an enzyme-linked reagent.)

One may read the IC50 as the concentration needed to halve the response being measured. For `CCc1cnn2c(NCc3ccc[n+]([O-])c3)cc(N3CCCC[C@H]3CCO)nc12` [Dinaciclib, dinaciclib], the concentration for half-maximal inhibition (IC50) is 7 nM.
